In patent publication US20260209193A1, “NOVEL INHIBITORS OF DNA DAMAGE RESPONSES FOR CANCER THERAPY” (The Regents of the University of California, priority 2022, published 2026):
Some results were stated once for a whole list of compounds, not compound by compound. Some compounds share one range, which may span the group rather than tell each member.

Amino acid sequences for entries named in this document (tags omitted). A change or cut given only in a name is not applied to a line headed by its entry.
UniProt P09874, whole entry, species assumed: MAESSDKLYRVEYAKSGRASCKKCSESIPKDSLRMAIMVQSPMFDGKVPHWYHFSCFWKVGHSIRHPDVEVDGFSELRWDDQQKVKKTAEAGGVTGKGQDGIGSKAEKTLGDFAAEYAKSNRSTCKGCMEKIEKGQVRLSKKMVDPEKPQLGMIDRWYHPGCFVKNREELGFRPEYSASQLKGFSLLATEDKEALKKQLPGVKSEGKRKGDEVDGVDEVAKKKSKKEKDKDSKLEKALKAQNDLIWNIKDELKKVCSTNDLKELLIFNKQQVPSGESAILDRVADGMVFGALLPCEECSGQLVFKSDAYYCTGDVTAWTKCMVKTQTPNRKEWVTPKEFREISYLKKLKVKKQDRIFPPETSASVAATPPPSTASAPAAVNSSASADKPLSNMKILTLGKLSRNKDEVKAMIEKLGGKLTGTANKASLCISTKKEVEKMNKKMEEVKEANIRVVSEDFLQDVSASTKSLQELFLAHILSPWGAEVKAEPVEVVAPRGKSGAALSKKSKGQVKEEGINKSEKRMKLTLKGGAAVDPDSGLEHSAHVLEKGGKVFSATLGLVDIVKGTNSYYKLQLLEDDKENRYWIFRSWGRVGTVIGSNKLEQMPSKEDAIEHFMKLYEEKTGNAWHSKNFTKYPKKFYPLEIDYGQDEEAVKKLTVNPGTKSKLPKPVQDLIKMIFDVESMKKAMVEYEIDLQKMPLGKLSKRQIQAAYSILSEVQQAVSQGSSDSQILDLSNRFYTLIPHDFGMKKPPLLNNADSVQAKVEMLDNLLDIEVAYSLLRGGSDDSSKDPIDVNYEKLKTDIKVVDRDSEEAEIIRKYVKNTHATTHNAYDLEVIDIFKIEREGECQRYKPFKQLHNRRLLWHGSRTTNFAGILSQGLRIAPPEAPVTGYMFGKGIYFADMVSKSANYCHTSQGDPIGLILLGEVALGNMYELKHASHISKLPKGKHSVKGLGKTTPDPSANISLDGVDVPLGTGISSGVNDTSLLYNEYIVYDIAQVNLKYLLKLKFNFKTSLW
UniProt Q13535: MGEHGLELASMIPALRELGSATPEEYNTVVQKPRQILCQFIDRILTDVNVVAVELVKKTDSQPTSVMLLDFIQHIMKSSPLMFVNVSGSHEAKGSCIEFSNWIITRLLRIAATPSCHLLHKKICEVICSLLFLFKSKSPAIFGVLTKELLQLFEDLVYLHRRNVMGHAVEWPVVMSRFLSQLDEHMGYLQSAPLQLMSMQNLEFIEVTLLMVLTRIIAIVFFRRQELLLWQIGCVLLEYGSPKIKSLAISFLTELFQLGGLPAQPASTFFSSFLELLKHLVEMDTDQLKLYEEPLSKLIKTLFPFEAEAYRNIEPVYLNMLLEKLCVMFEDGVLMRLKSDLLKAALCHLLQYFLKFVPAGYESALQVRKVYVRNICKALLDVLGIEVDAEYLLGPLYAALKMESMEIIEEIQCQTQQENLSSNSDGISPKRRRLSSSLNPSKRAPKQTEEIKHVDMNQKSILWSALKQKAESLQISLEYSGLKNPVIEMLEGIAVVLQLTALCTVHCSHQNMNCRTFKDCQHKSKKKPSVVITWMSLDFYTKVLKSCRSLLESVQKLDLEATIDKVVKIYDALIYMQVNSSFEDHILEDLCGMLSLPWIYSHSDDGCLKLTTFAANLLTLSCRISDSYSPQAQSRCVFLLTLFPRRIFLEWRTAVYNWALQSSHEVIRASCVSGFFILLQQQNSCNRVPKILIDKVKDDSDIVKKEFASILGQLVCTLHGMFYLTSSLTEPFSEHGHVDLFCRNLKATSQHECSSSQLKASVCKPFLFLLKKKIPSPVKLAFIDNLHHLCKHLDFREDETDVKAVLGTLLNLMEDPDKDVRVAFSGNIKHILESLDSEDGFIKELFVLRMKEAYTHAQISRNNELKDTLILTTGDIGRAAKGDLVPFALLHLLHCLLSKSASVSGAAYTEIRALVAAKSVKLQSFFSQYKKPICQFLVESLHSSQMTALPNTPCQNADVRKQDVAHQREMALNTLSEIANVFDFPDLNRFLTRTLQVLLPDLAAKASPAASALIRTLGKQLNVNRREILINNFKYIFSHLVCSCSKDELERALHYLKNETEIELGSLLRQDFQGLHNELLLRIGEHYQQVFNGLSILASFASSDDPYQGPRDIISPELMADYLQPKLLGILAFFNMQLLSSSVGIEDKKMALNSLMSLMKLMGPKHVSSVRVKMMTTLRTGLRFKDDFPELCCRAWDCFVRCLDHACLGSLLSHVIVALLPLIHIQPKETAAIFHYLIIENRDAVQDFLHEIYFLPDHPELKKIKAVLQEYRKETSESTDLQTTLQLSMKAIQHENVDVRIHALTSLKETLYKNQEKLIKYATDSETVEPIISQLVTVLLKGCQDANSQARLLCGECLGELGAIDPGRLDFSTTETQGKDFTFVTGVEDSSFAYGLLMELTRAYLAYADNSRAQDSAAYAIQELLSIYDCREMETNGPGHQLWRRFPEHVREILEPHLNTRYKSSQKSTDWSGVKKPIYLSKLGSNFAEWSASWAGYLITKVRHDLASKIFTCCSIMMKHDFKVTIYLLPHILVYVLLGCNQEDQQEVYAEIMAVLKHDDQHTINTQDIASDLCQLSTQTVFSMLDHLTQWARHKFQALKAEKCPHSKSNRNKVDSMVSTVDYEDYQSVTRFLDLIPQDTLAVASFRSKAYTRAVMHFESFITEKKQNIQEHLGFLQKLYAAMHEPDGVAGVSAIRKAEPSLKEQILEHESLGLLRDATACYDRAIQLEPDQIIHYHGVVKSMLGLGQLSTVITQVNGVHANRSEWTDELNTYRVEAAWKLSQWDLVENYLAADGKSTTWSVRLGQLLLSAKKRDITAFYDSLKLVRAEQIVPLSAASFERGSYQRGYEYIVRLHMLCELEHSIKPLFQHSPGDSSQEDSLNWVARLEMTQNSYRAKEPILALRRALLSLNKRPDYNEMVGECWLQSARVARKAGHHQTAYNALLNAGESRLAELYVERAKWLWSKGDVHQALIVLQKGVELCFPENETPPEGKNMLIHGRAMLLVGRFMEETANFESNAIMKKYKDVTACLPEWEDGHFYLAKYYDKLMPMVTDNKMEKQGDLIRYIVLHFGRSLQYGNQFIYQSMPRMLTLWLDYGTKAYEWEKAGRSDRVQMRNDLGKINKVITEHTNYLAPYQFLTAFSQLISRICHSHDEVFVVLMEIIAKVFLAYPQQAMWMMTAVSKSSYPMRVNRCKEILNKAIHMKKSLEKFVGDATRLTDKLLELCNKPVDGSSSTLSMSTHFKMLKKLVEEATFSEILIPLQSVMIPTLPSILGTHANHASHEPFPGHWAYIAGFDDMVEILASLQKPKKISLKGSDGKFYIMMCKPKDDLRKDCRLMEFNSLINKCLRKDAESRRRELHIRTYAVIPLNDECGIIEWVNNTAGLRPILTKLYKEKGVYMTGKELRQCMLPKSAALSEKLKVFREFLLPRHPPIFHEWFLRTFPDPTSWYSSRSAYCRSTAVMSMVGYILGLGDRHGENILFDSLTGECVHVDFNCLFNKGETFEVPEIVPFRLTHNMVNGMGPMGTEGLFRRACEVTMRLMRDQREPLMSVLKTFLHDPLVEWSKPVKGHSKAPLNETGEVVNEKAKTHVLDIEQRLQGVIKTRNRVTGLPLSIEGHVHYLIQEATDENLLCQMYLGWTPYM

Legend:
PARP1 = target: T1, PARP1 (Homo sapiens, UniProt P09874); test: PARP1 trapping, chromatin fractionation (chromatin-bound fraction); type: cell-based; settings: 0.5 μM; PC3 cells
T1 construct: endogenous in cells; host or cells: PC3
Text: The trapped PARP1 forms a toxic lesion and stalls the progress of replication forks. The replication fork collapses in BRCA1/2-deficient cancer cells, and then results in cell death. […] Six cancer cell lines were used in this assay, including two breast cancer cell lines, BRCA1-mutunt SUM149PT-BRCA1mut and SUM149PT-BRCA1rev where deleterious BRCA1 mutation is reverted to form a functional BRCA1, two ovarian cancer cell lines, BRCA1-null UWB1.289 and UWB1.289+BRCA1, a stable cell line in which wild-type BRCA1 function has been restored, and two prostate cancer cell lines, enzalutamide resistant C4-2B/MR which is homologous recombination (HR)-deficient due to Rad51 mutation, and enzalutamide insensitive PC3 which is HR-proficient.

ATR = target: T2, ATR (Homo sapiens, UniProt Q13535); test: ATR-mediated signaling: phosphorylation of Rad17 Ser 645 and CHK1 Ser 345 in cells; type: cell-based; settings: for Olaparib or UV induced phosphorylation of Rad17 at Ser 645 and CHK1 at Ser 345: 1 μM and 2 μM, PC3 cells; for Olaparib or UV induced phosphorylation of Rad17 Ser 645, CHK1 Ser 345, KAP1 Ser 824, CHK2 Thr 68: 0.5 μM and 1.5 μM, C4-2B/MR cells
T2 construct: endogenous in cells; host or cells: PC3, C4-2B/MR, SUM149PT-BRCA1rev, UWB1.289+BRCA1, MDA-MB-231
Protocol: PARP inhibitor-resistant cells are increasingly dependent on ATR for survival, and ATR inhibition disrupts restored HR and fork protection pathways in PARP inhibitor resistant BRCA-deficient cancer cells. For ATR kinase in vitro assays, ATR was immunoprecipitated with 3 μg of anti-ATR antibody (Bethyl Laboratories, A300-137A) from 1 mg of cell lysate. […] The IC50 was determined by the enzyme profiling service of Eurofins Cerep (France). […] The phosphorylation of CHK1 at Ser 345 sites was used as a bio-marker of ATR-mediated signaling pathway. The phosphorylation of Rad17 at Ser 645, which is a substrate of ATR, was also examined.
ATR inhibition was assessed in C4-2B/MR cells. Considering ATM is a homologous protein of ATR, we also detected the effect of JC046 analogs on the phosphorylation of KAP1 at Ser 824 and CHK2 at Thr 68 sites, which were used as markers of ATM signaling pathway.

SMILES | PARP1 trapped on DNA lesions (PARP1) | Olaparib or UV induced phosphorylation of Rad17 at Ser 645 and CHK1 at Ser 345 (ATR) | ATR activity inhibition (summary statement) (ATR) | Olaparib or UV induced phosphorylation of Rad17 Ser 645, CHK1 Ser 345, KAP1 Ser 824, CHK2 Thr 68 (ATR)
CCN(CC)CCOc1ccc(C(=O)NC2C/C(=C\c3ccc(F)c(F)c3)C(=O)/C(=C/c3ccc(F)c(F)c3)C2)cc1OCc1ccccc1 (stereo not drawn) [JCS101, 3-(Benzyloxy)-N-(3,5-bis((E)-3,4-difluorobenzylidene)-4-oxocyclohexyl)-4-(2-(diethylamino)ethoxy)-benzamide] | trapped | inhibited | – | –
O=C1/C(=C/c2ccc(F)c(F)c2)CC(NC(=O)c2ccc(OCCN3CCCCC3)c(OCc3ccccc3)c2)C/C1=C\c1ccc(F)c(F)c1 (stereo not drawn) [JCS102, 3-(Benzyloxy)-N-(3,5-bis((E)-3,4-difluorobenzylidene)-4-oxocyclohexyl)-4-(2-(piperidin-1-yl)eth-oxy)benzamide] | trapped | inhibited | – | –
CC(=O)c1cc(C(=O)NC2C/C(=C\c3ccc(F)c(F)c3)C(=O)/C(=C/c3ccc(F)c(F)c3)C2)ccc1OCCN1CCCCC1 (stereo not drawn) [JCS103, 3-Acetyl-N-(3,5-bis((E)-3,4-difluorobenzylidene)-4-oxocyclohexyl)-4-(2-(piperidin-1-yl)ethoxy)-benzamide] | trapped | inhibited | – | –
CCN(CC)CCOc1ccc(C(=O)NC2C/C(=C\c3ccc(F)c(F)c3)C(=O)/C(=C/c3ccc(F)c(F)c3)C2)cc1C(C)=O (stereo not drawn) [JCS104, 3-Acetyl-N-(3,5-bis((E)-3,4-difluorobenzylidene)-4-oxocyclohexyl)-4-(2-(diethylamino)ethoxy)-benzamide] | trapped | inhibited | – | –
CCCN(CCC)CCC(=O)N1C/C(=C\c2ccc(F)c(F)c2)C(=O)/C(=C/c2ccc(F)c(F)c2)C1 [JCS117, 3,5-Bis((E)-3,4-difluorobenzylidene)-1-(3-(dipropylamino)propanoyl)piperidin-4-one] | – | – | inhibits ATR/ATM activity in C4-2B/MR cells | inhibited
COCCN(CCOC)CCC(=O)N1C/C(=C\c2ccc(F)c(F)c2)C(=O)/C(=C/c2ccc(F)c(F)c2)C1 [JCS118, 1-(3-(Bis(2-methoxyethyl)amino)propanoyl)-3,5-bis((E)-3,4-difluorobenzylidene)piperidin-4-one] | – | – | inhibits ATR/ATM activity in C4-2B/MR cells | inhibited
O=C1/C(=C/c2ccc(F)c(F)c2)CN(C(=O)CCN2CC=CC2)C/C1=C\c1ccc(F)c(F)c1 [JCS119, 3,5-Bis((E)-3,4-difluorobenzylidene)-1-(3-(2,5-dihydro-1H-pyrrol-1-yl)propanoyl)piperidin-4-one] | – | – | inhibits ATR/ATM activity in C4-2B/MR cells | inhibited
O=C1/C(=C/c2ccc(F)c(F)c2)CN(C(=O)CCN2CC3CC3C2)C/C1=C\c1ccc(F)c(F)c1 (stereo not drawn) [JCS120, 1-(3-(3-Azabicyclo[3.1.0]hexan-3-yl)propanoyl)-3,5-bis((E)-3,4-difluorobenzylidene)piperidin-4-one] | – | – | inhibits ATR/ATM activity in C4-2B/MR cells | inhibited
O=C1/C(=C/c2ccc(F)c(F)c2)CN(C(=O)CCN2CCC2)C/C1=C\c1ccc(F)c(F)c1 [JCS121, 1-(3-(Azetidin-1-yl)propanoyl)-3,5-bis((E)-3,4-difluorobenzylidene)piperidin-4-one] | – | – | inhibits ATR/ATM activity in C4-2B/MR cells | inhibited
COC1CCN(CCC(=O)N2C/C(=C\c3ccc(F)c(F)c3)C(=O)/C(=C/c3ccc(F)c(F)c3)C2)C1 (stereo not drawn) [JCS122, 3,5-Bis((E)-3,4-difluorobenzylidene)-1-(3-(3-methoxypyrrolidin-1-yl)propanoyl)piperidin-4-one] | – | – | inhibits ATR/ATM activity in C4-2B/MR cells | inhibited
O=C1/C(=C/c2ccc(F)c(F)c2)CN(C(=O)CCN2CC[C@H](F)C2)C/C1=C\c1ccc(F)c(F)c1 [JCS123, 3,5-Bis((E)-3,4-difluorobenzylidene)-1-(3-((S)-3-fluoropyrrolidin-1-yl)propanoyl)piperidin-4-one] | – | – | inhibits ATR/ATM activity in C4-2B/MR cells | inhibited
C[C@@H]1CCCN1CCC(=O)N1C/C(=C\c2ccc(F)c(F)c2)C(=O)/C(=C/c2ccc(F)c(F)c2)C1 [JCS124, 3,5-Bis((E)-3,4-difluorobenzylidene)-1-(3-((R)-2-methylpyrrolidin-1-yl)propanoyl)piperidin-4-one] | – | – | inhibits ATR/ATM activity in C4-2B/MR cells | inhibited
O=C1/C(=C/c2ccc(F)c(F)c2)CN(C(=O)CCN2CC3CCCC3C2)C/C1=C\c1ccc(F)c(F)c1 (stereo not drawn) [JCS125, 3,5-Bis((E)-3,4-difluorobenzylidene)-1-(3-(hexahydrocyclopenta[c]pyrrol-2(1H)-yl)propanoyl)-piperidin-4-one] | – | – | inhibits ATR/ATM activity in C4-2B/MR cells | inhibited
COC[C@@H]1CCCN1CCC(=O)N1C/C(=C\c2ccc(F)c(F)c2)C(=O)/C(=C/c2ccc(F)c(F)c2)C1 [JCS126, 3,5-Bis((E)-3,4-difluorobenzylidene)-1-(3-((S)-2-(methoxymethyl)pyrrolidin-1-yl)propanoyl)-piperidin-4-one] | – | – | inhibits ATR/ATM activity in C4-2B/MR cells | inhibited
O=C1/C(=C/c2ccc(F)c(F)c2)CN(C(=O)CCN2Cc3ccccc3C2)C/C1=C\c1ccc(F)c(F)c1 [JCS127, 3,5-Bis((E)-3,4-difluorobenzylidene)-1-(3-(isoindolin-2-yl)propanoyl)piperidin-4-one] | – | – | inhibits ATR/ATM activity in C4-2B/MR cells | inhibited
CN(C)[C@@H]1CCN(CCC(=O)N2C/C(=C\c3ccc(F)c(F)c3)C(=O)/C(=C/c3ccc(F)c(F)c3)C2)C1 [JCS128, 3,5-Bis((E)-3,4-difluorobenzylidene)-1-(3-((R)-3-(dimethylamino)pyrrolidin-1-yl)propanoyl)piper-idin-4-one] | – | – | inhibits ATR/ATM activity in C4-2B/MR cells | inhibited
O=C1/C(=C/c2ccc(F)c(F)c2)CN(C(=O)CCN2CCN3CCCC3C2)C/C1=C\c1ccc(F)c(F)c1 (stereo not drawn) [JCS129, 3,5-Bis((E)-3,4-difluorobenzylidene)-1-(3-(hexahydropyrrolo[1,2-a]pyrazin-2(1H)-yl)propanoyl)pi-peridin-4-one] | – | – | inhibits ATR/ATM activity in C4-2B/MR cells | inhibited
CS(=O)(=O)C1CCN(CCC(=O)N2C/C(=C\c3ccc(F)c(F)c3)C(=O)/C(=C/c3ccc(F)c(F)c3)C2)C1 (stereo not drawn) [JCS130, 3,5-Bis((E)-3,4-difluorobenzylidene)-1-(3-(3-(methylsulfonyl)pyrrolidin-1-yl)propanoyl)piperidin-4-one] | – | – | inhibits ATR/ATM activity in C4-2B/MR cells | inhibited
